For at least one compound, name, drawing or mass did not settle the structure.
Assay: Solubilization of model perfume and dynamic headspace analysis (Example 11)
Format: physicochemical
Conditions: formulations of Table 12

With COCCOCCOCCOCCOCCOCCOCCOCCOCCOCCOCCOCCOCCOCCOCCOCCOCCOCCOCCOCC(C)OCC(C)OCC(C)N=Cc1ccc(O)c(OC)c1 (mixture of isomers) [Imine C1, reference compound] the “solubilization of the model perfume in water” value was “not capable to solubilize the perfume”.

— patent US11344493B2, “Cleavable surfactant” (FIRMENICH SA, priority 2017, dated 2022)
